{
  "sequences": {"note": "Amino acid sequences for entries named in this document (tags omitted).", "UniProt Q93009": "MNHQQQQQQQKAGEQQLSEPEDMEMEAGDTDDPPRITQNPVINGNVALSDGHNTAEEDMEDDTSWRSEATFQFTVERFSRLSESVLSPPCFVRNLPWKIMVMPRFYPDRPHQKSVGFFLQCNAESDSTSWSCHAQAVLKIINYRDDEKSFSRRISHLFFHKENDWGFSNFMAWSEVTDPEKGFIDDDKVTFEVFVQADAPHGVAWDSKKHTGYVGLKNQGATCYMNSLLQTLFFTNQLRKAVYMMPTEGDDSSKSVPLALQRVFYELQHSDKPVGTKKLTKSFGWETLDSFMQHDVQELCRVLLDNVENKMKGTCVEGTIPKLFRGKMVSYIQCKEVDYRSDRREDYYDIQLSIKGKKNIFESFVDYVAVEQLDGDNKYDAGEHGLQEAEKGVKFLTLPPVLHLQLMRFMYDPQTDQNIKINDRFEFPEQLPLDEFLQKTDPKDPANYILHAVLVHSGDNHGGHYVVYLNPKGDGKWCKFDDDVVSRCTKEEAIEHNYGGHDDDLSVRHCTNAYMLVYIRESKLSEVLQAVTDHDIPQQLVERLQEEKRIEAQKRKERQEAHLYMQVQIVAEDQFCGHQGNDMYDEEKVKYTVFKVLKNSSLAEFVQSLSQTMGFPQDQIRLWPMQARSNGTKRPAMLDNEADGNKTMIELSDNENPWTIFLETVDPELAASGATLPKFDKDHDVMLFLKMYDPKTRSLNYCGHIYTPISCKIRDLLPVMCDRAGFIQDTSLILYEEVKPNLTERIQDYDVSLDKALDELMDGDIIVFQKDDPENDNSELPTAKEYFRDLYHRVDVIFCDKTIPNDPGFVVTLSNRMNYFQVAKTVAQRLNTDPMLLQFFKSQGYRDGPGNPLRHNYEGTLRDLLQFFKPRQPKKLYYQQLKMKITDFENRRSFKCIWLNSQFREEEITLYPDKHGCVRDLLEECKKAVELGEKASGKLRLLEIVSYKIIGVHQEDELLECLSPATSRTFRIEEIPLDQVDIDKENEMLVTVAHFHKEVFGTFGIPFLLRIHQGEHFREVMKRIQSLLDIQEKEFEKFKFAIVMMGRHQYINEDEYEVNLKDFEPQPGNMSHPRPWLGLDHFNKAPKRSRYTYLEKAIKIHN", "UniProt P46937": "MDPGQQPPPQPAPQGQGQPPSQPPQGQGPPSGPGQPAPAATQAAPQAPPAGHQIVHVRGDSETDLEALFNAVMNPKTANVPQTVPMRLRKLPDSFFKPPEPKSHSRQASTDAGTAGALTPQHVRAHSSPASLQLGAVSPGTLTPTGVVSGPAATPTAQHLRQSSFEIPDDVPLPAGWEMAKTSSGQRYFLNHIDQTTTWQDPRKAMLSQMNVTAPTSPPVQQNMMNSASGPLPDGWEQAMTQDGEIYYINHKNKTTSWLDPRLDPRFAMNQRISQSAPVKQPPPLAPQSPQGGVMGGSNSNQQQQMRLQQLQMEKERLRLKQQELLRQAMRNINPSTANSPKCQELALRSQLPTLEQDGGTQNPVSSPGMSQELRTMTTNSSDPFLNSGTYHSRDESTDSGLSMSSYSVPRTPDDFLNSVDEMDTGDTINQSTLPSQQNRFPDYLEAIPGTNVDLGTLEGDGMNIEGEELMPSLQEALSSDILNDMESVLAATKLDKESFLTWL"},
  "source": "paper PMC6345853",
  "key": {"[1]": {"target": "endogenous HAUSP (human (endogenous in 293T)) (UniProt Q93009)", "assay": "co-IP; endogenous proteins from 293T cells; lysate of one 10 cm plate divided for IP with control IgG or Yap/HAUSP antibodies"}, "[2]": {"target": "endogenous Yap (human (endogenous in 293T)) (UniProt P46937)", "assay": "co-IP; endogenous proteins from 293T cells; lysate of one 10 cm plate divided for IP with control IgG or Yap/HAUSP antibodies"}, "[3]": {"target": "Fg-HAUSP (expressed in 293T cells) (human) (UniProt Q93009)", "assay": "co-IP; 293T cells transfected with tagged constructs, IP and immunoblot; in some panels with co-expressed LATS1/LATS2 or MST1/MST2"}},
  "note": "No constants are given. Whether binding was seen depends on the method and setting. Binding seen in cells or lysates may run through a third protein. Some results given as binding are weak or reduced against the parent protein; the word gives no strength.",
  "data": [
    {"substance": "endogenous Yap (from UniProt P46937 1-504)", "values": [
      {"measurement": "binding", "setting": "[1]", "result": "binds"}
    ]},
    {"substance": "endogenous HAUSP (from UniProt Q93009 1-1102) (enzyme)", "values": [
      {"measurement": "binding", "setting": "[2]", "result": "binds"}
    ]},
    {"substance": "Myc-Yap (from UniProt P46937 1-504)", "values": [
      {"measurement": "binding", "setting": "[3]", "result": "binds"}
    ]}
  ]
}
